The values that follow come from PMC4706560.

By UniProt entry, the sequences of proteins in these tests, tags left out.
UniProt Q03135: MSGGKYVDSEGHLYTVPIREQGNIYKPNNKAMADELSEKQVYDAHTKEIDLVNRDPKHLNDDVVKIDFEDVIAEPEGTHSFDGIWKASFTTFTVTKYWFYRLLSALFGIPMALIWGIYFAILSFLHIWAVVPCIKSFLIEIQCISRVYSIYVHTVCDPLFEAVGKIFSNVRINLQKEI

The target of assay [1] is T1, Desmoglein 3 (human (endogenous in HaCaT)) (UniProt P32926).
T1 sequence: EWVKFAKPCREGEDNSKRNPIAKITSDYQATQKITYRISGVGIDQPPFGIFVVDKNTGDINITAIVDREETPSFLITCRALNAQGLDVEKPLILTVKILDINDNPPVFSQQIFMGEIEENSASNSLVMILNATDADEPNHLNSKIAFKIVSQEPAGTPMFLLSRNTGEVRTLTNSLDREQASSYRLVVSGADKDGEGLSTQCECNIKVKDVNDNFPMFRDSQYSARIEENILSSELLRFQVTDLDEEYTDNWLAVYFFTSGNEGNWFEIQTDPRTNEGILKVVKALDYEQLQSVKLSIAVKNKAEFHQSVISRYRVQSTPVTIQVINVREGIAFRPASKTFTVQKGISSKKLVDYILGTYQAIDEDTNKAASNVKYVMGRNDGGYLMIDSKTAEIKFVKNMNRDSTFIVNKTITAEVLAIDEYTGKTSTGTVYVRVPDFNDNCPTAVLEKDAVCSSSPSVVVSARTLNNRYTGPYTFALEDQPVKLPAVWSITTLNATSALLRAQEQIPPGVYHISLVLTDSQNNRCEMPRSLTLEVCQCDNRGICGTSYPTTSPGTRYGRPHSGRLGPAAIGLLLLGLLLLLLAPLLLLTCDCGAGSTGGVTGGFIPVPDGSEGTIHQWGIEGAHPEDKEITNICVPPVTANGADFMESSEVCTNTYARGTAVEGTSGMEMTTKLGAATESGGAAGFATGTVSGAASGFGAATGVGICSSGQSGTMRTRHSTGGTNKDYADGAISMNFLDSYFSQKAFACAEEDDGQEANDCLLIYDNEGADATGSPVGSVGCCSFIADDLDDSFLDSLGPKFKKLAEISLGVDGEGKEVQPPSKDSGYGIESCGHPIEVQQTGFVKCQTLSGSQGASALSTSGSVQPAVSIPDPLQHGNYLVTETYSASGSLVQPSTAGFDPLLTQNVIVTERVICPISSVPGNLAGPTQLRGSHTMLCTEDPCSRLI
The assay can be described thus: proximity ligation; Duolink PLA on fixed HaCaT cells, mouse Dsg3 Ab (5H10) with rabbit Cav-1 Ab or rabbit anti-Src; negative control A431-V cells with 5H10 and rabbit anti-Myc tag Ab.

The target of assay [2] is T1, Desmoglein 3 (human (endogenous in HaCaT)). The assay can be described thus: co-IP; immunoprecipitation with mouse antibody against Dsg3 from Triton X-100-soluble and -insoluble fractions of HaCaT cells, 500 µg protein of each fraction; Western blotting.
Assay [3] addresses caveolin-1 (human (endogenous in HaCaT and A431)) (UniProt Q03135). Nature of the assay: co-IP; rabbit caveolin antibody coupled to Dynabeads, overnight at 4 °C, 500 µg total protein; lysates of A431-Vect and A431-hDsg3.myc cells and of HaCaT cells with scrambled or Dsg3 siRNA; Western blotting.

No constants are given. Whether binding was seen depends on the method and setting. In cells and extracts the contact can be indirect. Some entries that bind do so weakly or less than the wild type. For part of these data: Sequences can lack the tags named with a protein.

For caveolin-1 (from UniProt Q03135 1-178), the binding entry in assay [1] and in assay [2] was “binds” in each case.

B1: hDsg3.myc (protein, UniProt P32926 50-999)
chain: EWVKFAKPCREGEDNSKRNPIAKITSDYQATQKITYRISGVGIDQPPFGIFVVDKNTGDINITAIVDREETPSFLITCRALNAQGLDVEKPLILTVKILDINDNPPVFSQQIFMGEIEENSASNSLVMILNATDADEPNHLNSKIAFKIVSQEPAGTPMFLLSRNTGEVRTLTNSLDREQASSYRLVVSGADKDGEGLSTQCECNIKVKDVNDNFPMFRDSQYSARIEENILSSELLRFQVTDLDEEYTDNWLAVYFFTSGNEGNWFEIQTDPRTNEGILKVVKALDYEQLQSVKLSIAVKNKAEFHQSVISRYRVQSTPVTIQVINVREGIAFRPASKTFTVQKGISSKKLVDYILGTYQAIDEDTNKAASNVKYVMGRNDGGYLMIDSKTAEIKFVKNMNRDSTFIVNKTITAEVLAIDEYTGKTSTGTVYVRVPDFNDNCPTAVLEKDAVCSSSPSVVVSARTLNNRYTGPYTFALEDQPVKLPAVWSITTLNATSALLRAQEQIPPGVYHISLVLTDSQNNRCEMPRSLTLEVCQCDNRGICGTSYPTTSPGTRYGRPHSGRLGPAAIGLLLLGLLLLLLAPLLLLTCDCGAGSTGGVTGGFIPVPDGSEGTIHQWGIEGAHPEDKEITNICVPPVTANGADFMESSEVCTNTYARGTAVEGTSGMEMTTKLGAATESGGAAGFATGTVSGAASGFGAATGVGICSSGQSGTMRTRHSTGGTNKDYADGAISMNFLDSYFSQKAFACAEEDDGQEANDCLLIYDNEGADATGSPVGSVGCCSFIADDLDDSFLDSLGPKFKKLAEISLGVDGEGKEVQPPSKDSGYGIESCGHPIEVQQTGFVKCQTLSGSQGASALSTSGSVQPAVSIPDPLQHGNYLVTETYSASGSLVQPSTAGFDPLLTQNVIVTERVICPISSVPGNLAGPTQLRGSHTMLCTEDPCSRLI
Consider B1, for which, in assay [3], the binding entry is on record as “binds”.
